Measurements reported in PubChem BioAssay AID504784 (Drosophila RNAi Screening Center, 2011)
In all, the deposit lists about 17,000 reagents; below is a random part of those that have a named target and a result. 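Each column is one replicate's B-score; the combined score over replicates was not deposited, so single values may mislead.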 Names joined by + are all predicted targets of the reagent. No sequences are given here.

Assay: 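Fly genes whose silencing alters how much lipid cells keep in droplets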 (primary screen)
Cell system: Drosophila Kc167 embryonic cells
Reagent: long dsRNA against Drosophila genes, about 250 ng dsRNA per well
Time to read-out: 4 days
Challenge: cells fed 400 µM oleic acid bound to BSA
Read-out: 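Cells imaged and segmented; ratio of lipid droplet area to nuclear area, log-transformed, then normalised as a B-score over the screen; higher means more stored lipid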
Reading the numbers: droplet/nuclear area B-score: higher = more stored lipid (overstorage)

Against sqh [DRSC18837], the values are droplet/nuclear area B-score, replicate 1 = -0.551; droplet/nuclear area B-score, replicate 2 = 0.0947; droplet/nuclear area B-score, replicate 3 = -0.0513. Knock-down of CG15443 [DRSC00455] resulted in: droplet/nuclear area B-score, replicate 1 = -0.915; droplet/nuclear area B-score, replicate 2 = 1.14. Grl36a [DRSC21748] showed droplet/nuclear area B-score, replicate 1 = 1.32; droplet/nuclear area B-score, replicate 2 = 1.43. Against NaPi-T [DRSC07476], the entry reads droplet/nuclear area B-score, replicate 2 = -1.15. Silencing of CG31551 [DRSC12159] came out at: droplet/nuclear area B-score, replicate 1 = -2.32; droplet/nuclear area B-score, replicate 2 = 0.919; droplet/nuclear area B-score, replicate 3 = -1.51. With knock-down of CG31551 [DRSC22403], the screen gave droplet/nuclear area B-score, replicate 1 = -1.26; droplet/nuclear area B-score, replicate 2 = 0.648.

alien + CG17906 [DRSC02641] gave droplet/nuclear area B-score, replicate 1 = -0.558; droplet/nuclear area B-score, replicate 2 = 0.0301. With knock-down of CG13676 [DRSC10035], the screen gave droplet/nuclear area B-score, replicate 1 = 0.0222; droplet/nuclear area B-score, replicate 2 = -0.206. Against CG32720 [DRSC17529], the entry reads droplet/nuclear area B-score, replicate 1 = 4.38; droplet/nuclear area B-score, replicate 2 = 4.16. ACXD [DRSC07843] gave droplet/nuclear area B-score, replicate 1 = -1.49; droplet/nuclear area B-score, replicate 2 = -0.576. Knock-down of wmd [DRSC04436] gave: droplet/nuclear area B-score, replicate 1 = 1.98; droplet/nuclear area B-score, replicate 2 = 2.14. CG32668 [DRSC18879] showed droplet/nuclear area B-score, replicate 1 = 0.802; droplet/nuclear area B-score, replicate 2 = -0.527.

For Nt5b [DRSC19976] the deposit lists droplet/nuclear area B-score, replicate 1 = 3.5; droplet/nuclear area B-score, replicate 2 = 1.08. Depletion of Nt5b [DRSC19977] came out at: droplet/nuclear area B-score, replicate 1 = -0.809; droplet/nuclear area B-score, replicate 2 = -0.268. Silencing of Nt5b [DRSC19978] resulted in: droplet/nuclear area B-score, replicate 1 = 0.806; droplet/nuclear area B-score, replicate 2 = -0.188. Knock-down of Nt5b [DRSC22588] gave: droplet/nuclear area B-score, replicate 1 = -2.3; droplet/nuclear area B-score, replicate 2 = 0.687. With knock-down of CG32712 [DRSC17820] the results were droplet/nuclear area B-score, replicate 1 = 0.758; droplet/nuclear area B-score, replicate 2 = -0.502; droplet/nuclear area B-score, replicate 3 = -0.851. Silencing of Snx27 [DRSC17786] came out at: droplet/nuclear area B-score, replicate 1 = -0.36; droplet/nuclear area B-score, replicate 2 = 0.798.

After knock-down of Snx27 [DRSC18282] the results were droplet/nuclear area B-score, replicate 1 = 0.234; droplet/nuclear area B-score, replicate 2 = 0.518. After knock-down of Snx27 [DRSC18284], the record shows droplet/nuclear area B-score, replicate 1 = 2.29; droplet/nuclear area B-score, replicate 2 = 0.493. For Ktl [DRSC14270], the entry reads droplet/nuclear area B-score, replicate 1 = 0.00408; droplet/nuclear area B-score, replicate 2 = 0.456. With knock-down of Cpr65Aw [DRSC08794] the results were droplet/nuclear area B-score, replicate 1 = -0.23; droplet/nuclear area B-score, replicate 2 = -0.665. Against Acsx1L [DRSC16014], the values are droplet/nuclear area B-score, replicate 1 = -1.33; droplet/nuclear area B-score, replicate 2 = 3.28. After knock-down of ssp2 [DRSC11052] the results were droplet/nuclear area B-score, replicate 1 = 0.575; droplet/nuclear area B-score, replicate 2 = -0.434; droplet/nuclear area B-score, replicate 3 = -0.327.

rg [DRSC17726] gave droplet/nuclear area B-score, replicate 1 = -0.389; droplet/nuclear area B-score, replicate 2 = -3.23; droplet/nuclear area B-score, replicate 3 = 0.472. Knock-down of rg [DRSC18049] resulted in: droplet/nuclear area B-score, replicate 1 = -0.715; droplet/nuclear area B-score, replicate 2 = 0.507. CG16853 [DRSC01877] scored droplet/nuclear area B-score, replicate 1 = -0.038; droplet/nuclear area B-score, replicate 2 = 0.0723.
